# The list shows a part of the results. Most values lie at the level of the controls, where differences are scatter.
# Sequences of proteins named here, by UniProt entry; tags and fusion partners are left off. A change or cut given only in a name is not applied to a line headed by its entry.
# UniProt O08715: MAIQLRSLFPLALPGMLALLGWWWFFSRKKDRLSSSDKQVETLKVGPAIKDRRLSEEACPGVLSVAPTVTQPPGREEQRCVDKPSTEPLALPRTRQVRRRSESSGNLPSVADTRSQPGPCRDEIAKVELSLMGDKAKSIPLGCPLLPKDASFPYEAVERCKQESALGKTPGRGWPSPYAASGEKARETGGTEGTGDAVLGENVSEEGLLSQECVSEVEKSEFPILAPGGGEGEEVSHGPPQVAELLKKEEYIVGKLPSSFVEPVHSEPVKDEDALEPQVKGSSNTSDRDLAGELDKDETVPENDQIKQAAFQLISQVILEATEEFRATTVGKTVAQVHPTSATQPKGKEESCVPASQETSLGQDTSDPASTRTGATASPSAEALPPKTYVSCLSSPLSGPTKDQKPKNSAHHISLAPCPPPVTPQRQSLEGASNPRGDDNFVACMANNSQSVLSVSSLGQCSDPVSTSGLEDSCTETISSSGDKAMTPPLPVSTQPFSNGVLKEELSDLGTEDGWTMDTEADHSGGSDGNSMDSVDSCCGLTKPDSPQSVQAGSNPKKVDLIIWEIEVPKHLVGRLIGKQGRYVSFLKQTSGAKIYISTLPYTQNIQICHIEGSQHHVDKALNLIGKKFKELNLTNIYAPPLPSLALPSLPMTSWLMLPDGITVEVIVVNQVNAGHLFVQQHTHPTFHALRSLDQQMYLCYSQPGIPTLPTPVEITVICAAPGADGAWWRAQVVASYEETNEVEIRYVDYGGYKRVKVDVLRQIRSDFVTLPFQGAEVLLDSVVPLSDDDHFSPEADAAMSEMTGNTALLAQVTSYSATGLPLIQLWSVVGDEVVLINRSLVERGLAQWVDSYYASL
# UniProt E9PYK3: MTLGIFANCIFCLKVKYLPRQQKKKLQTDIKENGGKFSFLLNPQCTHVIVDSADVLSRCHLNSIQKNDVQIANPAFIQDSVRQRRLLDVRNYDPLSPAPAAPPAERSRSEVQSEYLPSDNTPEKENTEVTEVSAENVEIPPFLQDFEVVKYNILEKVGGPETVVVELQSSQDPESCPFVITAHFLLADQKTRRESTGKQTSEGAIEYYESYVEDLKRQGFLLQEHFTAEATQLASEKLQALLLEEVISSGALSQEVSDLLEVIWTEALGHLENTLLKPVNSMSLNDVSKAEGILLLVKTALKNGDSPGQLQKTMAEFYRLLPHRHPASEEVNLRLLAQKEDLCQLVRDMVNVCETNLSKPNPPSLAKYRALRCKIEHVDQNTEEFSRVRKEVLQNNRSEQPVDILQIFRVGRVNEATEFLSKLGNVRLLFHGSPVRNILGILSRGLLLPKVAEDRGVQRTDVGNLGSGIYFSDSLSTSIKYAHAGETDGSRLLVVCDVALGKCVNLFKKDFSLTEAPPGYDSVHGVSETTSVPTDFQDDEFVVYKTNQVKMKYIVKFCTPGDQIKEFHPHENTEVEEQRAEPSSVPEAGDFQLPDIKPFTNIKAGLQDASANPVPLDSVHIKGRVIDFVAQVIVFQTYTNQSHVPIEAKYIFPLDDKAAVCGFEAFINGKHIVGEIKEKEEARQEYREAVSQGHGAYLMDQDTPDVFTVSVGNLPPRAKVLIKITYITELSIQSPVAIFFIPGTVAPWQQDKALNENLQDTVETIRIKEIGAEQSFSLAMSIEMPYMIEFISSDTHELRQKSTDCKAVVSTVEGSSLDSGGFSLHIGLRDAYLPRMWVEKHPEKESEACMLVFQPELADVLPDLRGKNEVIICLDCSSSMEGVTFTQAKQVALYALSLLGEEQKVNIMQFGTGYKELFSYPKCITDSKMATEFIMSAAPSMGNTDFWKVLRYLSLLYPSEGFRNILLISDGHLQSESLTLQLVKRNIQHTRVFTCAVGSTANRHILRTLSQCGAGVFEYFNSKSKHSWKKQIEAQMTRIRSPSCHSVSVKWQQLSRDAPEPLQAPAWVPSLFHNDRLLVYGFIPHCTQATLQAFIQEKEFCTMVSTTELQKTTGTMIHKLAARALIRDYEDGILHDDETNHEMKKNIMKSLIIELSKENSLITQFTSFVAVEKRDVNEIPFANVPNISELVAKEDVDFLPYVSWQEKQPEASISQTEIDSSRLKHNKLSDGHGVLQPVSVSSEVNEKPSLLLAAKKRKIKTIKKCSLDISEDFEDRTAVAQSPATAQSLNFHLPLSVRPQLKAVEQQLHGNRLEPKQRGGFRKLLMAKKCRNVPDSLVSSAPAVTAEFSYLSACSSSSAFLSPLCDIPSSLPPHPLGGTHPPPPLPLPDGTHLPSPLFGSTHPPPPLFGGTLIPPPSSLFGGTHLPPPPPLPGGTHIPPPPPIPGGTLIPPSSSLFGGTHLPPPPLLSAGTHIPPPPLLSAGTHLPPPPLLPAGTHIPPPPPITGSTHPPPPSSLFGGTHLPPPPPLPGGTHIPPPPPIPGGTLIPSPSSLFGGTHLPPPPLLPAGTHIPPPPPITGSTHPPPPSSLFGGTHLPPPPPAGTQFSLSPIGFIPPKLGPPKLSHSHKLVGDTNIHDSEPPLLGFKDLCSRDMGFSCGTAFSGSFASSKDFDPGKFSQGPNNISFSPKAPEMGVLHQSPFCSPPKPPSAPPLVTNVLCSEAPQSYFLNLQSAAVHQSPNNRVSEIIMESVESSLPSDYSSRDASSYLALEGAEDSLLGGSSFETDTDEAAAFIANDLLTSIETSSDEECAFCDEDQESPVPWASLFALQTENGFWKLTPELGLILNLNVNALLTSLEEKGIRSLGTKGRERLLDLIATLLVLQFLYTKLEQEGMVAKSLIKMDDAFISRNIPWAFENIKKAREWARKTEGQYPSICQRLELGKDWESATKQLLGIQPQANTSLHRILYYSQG
# UniProt E9PV87: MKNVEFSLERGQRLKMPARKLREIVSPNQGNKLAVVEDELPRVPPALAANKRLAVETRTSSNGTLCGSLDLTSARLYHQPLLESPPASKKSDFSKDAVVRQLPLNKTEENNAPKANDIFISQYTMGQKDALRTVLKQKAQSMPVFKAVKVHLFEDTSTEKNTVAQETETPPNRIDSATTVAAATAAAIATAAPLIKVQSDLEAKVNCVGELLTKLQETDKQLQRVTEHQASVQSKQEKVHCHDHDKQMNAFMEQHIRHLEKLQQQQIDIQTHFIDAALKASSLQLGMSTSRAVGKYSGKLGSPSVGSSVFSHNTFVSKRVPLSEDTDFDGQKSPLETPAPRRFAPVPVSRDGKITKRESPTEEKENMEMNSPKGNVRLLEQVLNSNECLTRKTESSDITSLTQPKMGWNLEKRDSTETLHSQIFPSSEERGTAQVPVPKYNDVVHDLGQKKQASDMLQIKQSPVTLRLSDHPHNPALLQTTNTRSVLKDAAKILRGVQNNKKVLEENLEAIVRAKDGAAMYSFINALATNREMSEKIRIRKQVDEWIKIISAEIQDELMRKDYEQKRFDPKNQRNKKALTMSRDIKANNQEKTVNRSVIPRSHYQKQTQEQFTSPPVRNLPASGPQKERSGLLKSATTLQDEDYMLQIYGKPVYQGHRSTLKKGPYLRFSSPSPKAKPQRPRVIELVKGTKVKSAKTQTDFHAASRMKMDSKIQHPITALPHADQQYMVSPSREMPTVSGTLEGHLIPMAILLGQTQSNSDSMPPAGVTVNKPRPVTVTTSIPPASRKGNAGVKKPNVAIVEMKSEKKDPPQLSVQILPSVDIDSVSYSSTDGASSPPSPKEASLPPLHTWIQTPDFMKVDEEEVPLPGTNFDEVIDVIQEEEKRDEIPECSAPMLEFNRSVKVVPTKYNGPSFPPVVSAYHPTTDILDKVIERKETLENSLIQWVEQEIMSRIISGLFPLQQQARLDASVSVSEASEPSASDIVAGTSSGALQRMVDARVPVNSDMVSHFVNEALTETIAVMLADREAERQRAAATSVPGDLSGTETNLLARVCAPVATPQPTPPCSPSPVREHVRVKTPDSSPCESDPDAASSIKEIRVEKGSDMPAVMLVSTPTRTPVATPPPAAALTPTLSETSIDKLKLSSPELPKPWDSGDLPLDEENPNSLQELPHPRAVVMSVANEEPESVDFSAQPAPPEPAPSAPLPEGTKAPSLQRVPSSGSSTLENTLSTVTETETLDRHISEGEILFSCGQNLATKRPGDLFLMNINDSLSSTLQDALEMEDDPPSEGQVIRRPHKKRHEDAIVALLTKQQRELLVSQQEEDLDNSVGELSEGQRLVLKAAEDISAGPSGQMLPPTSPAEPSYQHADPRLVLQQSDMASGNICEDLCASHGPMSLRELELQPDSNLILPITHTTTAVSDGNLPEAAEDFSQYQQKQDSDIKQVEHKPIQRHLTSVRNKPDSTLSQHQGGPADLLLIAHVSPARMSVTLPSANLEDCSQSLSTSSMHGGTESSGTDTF
# UniProt O08999: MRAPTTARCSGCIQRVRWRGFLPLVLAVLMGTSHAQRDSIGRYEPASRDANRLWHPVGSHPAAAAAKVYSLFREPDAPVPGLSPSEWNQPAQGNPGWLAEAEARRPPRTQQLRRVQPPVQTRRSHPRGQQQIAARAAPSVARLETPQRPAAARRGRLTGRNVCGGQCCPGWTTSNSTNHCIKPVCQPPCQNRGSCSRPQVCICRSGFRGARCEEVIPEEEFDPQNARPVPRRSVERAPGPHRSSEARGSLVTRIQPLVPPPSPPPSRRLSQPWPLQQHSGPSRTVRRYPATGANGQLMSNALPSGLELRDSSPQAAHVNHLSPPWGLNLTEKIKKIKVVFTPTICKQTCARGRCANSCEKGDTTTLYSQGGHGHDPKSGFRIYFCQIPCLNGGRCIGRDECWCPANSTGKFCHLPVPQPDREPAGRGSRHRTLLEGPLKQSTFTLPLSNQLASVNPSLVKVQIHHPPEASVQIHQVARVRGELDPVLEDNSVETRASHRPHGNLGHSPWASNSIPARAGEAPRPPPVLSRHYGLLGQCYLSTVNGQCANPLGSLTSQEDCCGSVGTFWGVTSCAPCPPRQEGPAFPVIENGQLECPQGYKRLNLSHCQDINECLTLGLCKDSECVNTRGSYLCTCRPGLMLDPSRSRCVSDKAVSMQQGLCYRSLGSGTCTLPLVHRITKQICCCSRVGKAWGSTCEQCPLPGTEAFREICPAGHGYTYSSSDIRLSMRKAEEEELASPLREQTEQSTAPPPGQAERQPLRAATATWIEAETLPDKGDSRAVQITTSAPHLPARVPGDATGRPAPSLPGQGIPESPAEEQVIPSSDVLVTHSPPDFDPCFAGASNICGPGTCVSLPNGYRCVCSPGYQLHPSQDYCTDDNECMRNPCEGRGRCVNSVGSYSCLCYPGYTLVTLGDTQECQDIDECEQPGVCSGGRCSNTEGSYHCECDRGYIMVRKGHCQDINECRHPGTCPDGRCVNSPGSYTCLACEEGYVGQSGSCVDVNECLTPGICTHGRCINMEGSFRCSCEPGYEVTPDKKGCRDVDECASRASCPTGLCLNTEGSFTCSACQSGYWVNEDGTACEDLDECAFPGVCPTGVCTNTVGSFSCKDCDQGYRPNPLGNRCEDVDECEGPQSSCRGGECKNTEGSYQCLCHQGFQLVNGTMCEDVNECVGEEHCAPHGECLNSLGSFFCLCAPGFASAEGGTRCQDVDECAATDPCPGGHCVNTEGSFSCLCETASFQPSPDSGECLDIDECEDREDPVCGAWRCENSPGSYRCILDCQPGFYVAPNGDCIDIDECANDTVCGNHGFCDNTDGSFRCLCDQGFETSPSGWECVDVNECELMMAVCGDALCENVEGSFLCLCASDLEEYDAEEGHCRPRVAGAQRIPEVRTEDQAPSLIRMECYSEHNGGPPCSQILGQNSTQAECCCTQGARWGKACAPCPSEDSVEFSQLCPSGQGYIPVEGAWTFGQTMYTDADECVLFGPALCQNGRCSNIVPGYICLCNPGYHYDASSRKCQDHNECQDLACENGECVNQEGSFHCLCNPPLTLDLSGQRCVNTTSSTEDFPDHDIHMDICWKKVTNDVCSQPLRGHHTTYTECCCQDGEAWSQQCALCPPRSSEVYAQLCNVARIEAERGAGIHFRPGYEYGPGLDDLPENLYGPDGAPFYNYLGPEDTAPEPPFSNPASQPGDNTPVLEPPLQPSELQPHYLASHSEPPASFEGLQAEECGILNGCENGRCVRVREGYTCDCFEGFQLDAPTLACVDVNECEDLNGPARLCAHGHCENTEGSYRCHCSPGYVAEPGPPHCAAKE
# Compound: CN[C@@H]1C[C@H]2O[C@@](C)([C@@H]1OC)n1c3ccccc3c3c4c(c5c6ccccc6n2c5c31)C(=O)NC4 [staurosporine]
# Assay: log2 fold change of tryptic peptide abundance, ligand vs vehicle (limited proteolysis) (log2 ratio); higher = more trypsin-susceptible (destabilized)
# Settings: ligand concentration: 20 uM; sample: mouse liver crude lysate; replicate design: treated separately
row,Target,log2 fold change
1,"UniProt O08715 (peptide sequence: DASFPYEAVER, peptide start residue: 149)",-0.159
2,"UniProt E9PYK3 (peptide sequence: LVGDTNIHDSEPPLLGFK, peptide start residue: 1626)",-0.136
3,"UniProt O08553 (peptide sequence: IVLEDGTLHVTEGSGR, peptide start residue: 452)",0.136
4,"UniProt E9PV87 (peptide sequence: VHLFEDTSTEK, peptide start residue: 150)",-0.301
5,"UniProt O08999 (peptide sequence: GSCSRPQVCICR, peptide start residue: 193)",0.000336

# From the supplement of paper PMC12819154, “High-throughput peptide-centric local stability assay extends protein–ligand identification to membrane proteins, tissues and bacteria” (Nature Structural & Molecular Biology, 2025)
